This is one part of the list.
target: T1, OsSMF1 (Oryza sativa, UniProt Q6ZLB0 1-436); assay: protein-binding microarray (RPBM); PBS, 2% BSA, 51.3 ng/ul salmon testes DNA, 50 uM zinc acetate, 200 nM TF, 25 C, 1 h; high values mean tight binding; conditions: protein: recombinant; tags: N-terminal polyhistidine and DsRed monomer fusion (pET32a); chain copies: 2; label: CyDye5-dUTP incorporated in the synthesized complementary strand; 3' TTTTT single-stranded linker to array surface; dsDNA, one strand shown
T1 sequence: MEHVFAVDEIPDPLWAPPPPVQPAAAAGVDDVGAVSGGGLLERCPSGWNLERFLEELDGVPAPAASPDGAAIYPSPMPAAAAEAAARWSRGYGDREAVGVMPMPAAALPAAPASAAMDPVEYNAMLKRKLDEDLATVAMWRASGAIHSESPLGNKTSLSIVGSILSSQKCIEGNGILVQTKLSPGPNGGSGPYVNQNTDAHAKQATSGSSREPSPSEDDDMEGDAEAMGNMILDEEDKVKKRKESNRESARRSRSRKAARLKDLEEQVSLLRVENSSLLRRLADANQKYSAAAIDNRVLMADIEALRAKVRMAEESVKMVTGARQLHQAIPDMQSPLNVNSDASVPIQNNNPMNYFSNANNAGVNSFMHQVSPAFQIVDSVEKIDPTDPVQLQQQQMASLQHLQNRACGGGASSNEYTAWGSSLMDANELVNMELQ
Summary of the method: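 Transcription factors were made in E. coli BL21-CodonPlus as N-terminal fusions to a polyhistidine tag and DsRed, then purified on Ni–NTA. After primer extension with Cy5-dUTP and blocking with 2% BSA, a custom Agilent array was exposed for 1 h at 25 °C to 200 nM protein in PBS, 2% BSA, salmon testes DNA and 50 µM zinc acetate. Washed arrays were scanned on an Axon 4000B, and the binding signal is per-feature fluorescence intensity in arbitrary units.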

Sequence | binding signal
TCTGCCACCTTTGAAAGGTTCCGTCATCATGCACCAGTTTCGGAGTCACCTAGTGCAG | 3900 fluorescence intensity (a.u.)
TATCATTCAAAGGCTATAAATAATTGAGGTGATGTGGCTTCGGAGTCACCTAGTGCAG | 5000 fluorescence intensity (a.u.)
TAAATATCCATTCGATTTAGCGTGTCAACTTCATCCATCTCGGAGTCACCTAGTGCAG | 3980 fluorescence intensity (a.u.)
AGCTCATGGCACCTGATCGGCAATCAATCACCAAACGTGGCGGAGTCACCTAGTGCAG | 3160 fluorescence intensity (a.u.)
ATGCAGATTAGCGTGCGATTAGCGAGGCCACGTGGCGCTGCGGAGTCACCTAGTGCAG | 30600 fluorescence intensity (a.u.)
CCTGCCCCTCCACGCCCTCACCACAAACCCACGTGGGCCCCGGAGTCACCTAGTGCAG | 4240 fluorescence intensity (a.u.)
ACATGCCAGCTCCAACACACGAGCTACAACCCGGTAATTACGGAGTCACCTAGTGCAG | 3700 fluorescence intensity (a.u.)
AAGCTAGTCACACATCACCATCACACACACCAAGCCACACCGGAGTCACCTAGTGCAG | 4460 fluorescence intensity (a.u.)
TTGTTGGACTCGCCGGTGAGAAGCGATGTGTCATGGAATGCGGAGTCACCTAGTGCAG | 5590 fluorescence intensity (a.u.)
ACAACGTTATTGACATCACTCTACAAGCCACGTCATTTTACGGAGTCACCTAGTGCAG | 16800 fluorescence intensity (a.u.)
AGGACAGGAAAGTGGGTGAAAGATCAGGAACAGATTTTGGCGGAGTCACCTAGTGCAG | 7340 fluorescence intensity (a.u.)
AAGAAAATGCACATGGACATGTGTCAGCGCATAAACACGCCGGAGTCACCTAGTGCAG | 4040 fluorescence intensity (a.u.)
CTACGTTACACTGTGCGTGGCTTGTCTCTGCTCTATATGTCGGAGTCACCTAGTGCAG | 4020 fluorescence intensity (a.u.)
ATGTCTTTCCATAGGAATTCAATCCTTGAAAATTCCTCCACGGAGTCACCTAGTGCAG | 3240 fluorescence intensity (a.u.)
GCGCTGAAGATGTCCTGCGTGCACGCGACATCATCGTCAACGGAGTCACCTAGTGCAG | 4450 fluorescence intensity (a.u.)
TGGCCATCTTTATGTCCTACGTCATCTGTAGGTGGATCCTCGGAGTCACCTAGTGCAG | 9970 fluorescence intensity (a.u.)
TGTTCTTATGTTCAACTCCCGGGACACTGTTCATCATACGCGGAGTCACCTAGTGCAG | 4110 fluorescence intensity (a.u.)
GGTTCGGCGGCCGCAGGTGCCAGTCCACCGACGACGACGCCGGAGTCACCTAGTGCAG | 32800 fluorescence intensity (a.u.)
GCATGGCTCCAGGACCAAGTGGAGCATCTGGCCAGTGCTGCGGAGTCACCTAGTGCAG | 15200 fluorescence intensity (a.u.)
TTCTGAGGTTACTGCACATGAGTTCATTCTACAGCAACTACGGAGTCACCTAGTGCAG | 33000 fluorescence intensity (a.u.)
CTAATATTTATTGGATGACGTGGCTCATTTACGTTTCGTTCGGAGTCACCTAGTGCAG | 27300 fluorescence intensity (a.u.)

A different layout for part of the listing above.
TCTGCCACCTTTGAAAGGTTCCGTCATCATGCACCAGTTTCGGAGTCACCTAGTGCAG
  binding signal = 3900 fluorescence intensity (a.u.)
ATGTCTTTCCATAGGAATTCAATCCTTGAAAATTCCTCCACGGAGTCACCTAGTGCAG
  binding signal = 3240 fluorescence intensity (a.u.)
GCATGGCTCCAGGACCAAGTGGAGCATCTGGCCAGTGCTGCGGAGTCACCTAGTGCAG
  binding signal = 15200 fluorescence intensity (a.u.)

Additional records

Sequence | binding signal
AGCCCCGGAGGAAGAAGACTCTCGGTCAAGAGTCAAGACTCGGAGTCACCTAGTGCAG | 17200 fluorescence intensity (a.u.)
CCCACTCCAGAACGCCAGCCAGCCTGCCTGCCACATGGGGCGGAGTCACCTAGTGCAG | 3800 fluorescence intensity (a.u.)
GCGGGAACACACCGCCGTAGCAAACCCCGCATCCGGCACCCGGAGTCACCTAGTGCAG | 17400 fluorescence intensity (a.u.)
ACGTGCCCAAACATGAATGAGTTAGATATATTGTTTCATCCGGAGTCACCTAGTGCAG | 3340 fluorescence intensity (a.u.)
TTCCAATCCTTGCCACGCCCACCGCAGACCAAAGCCGCGCCGGAGTCACCTAGTGCAG | 3440 fluorescence intensity (a.u.)
CTTCTAAGTAGGAAAATATGCTGACATGGATATCTTATAGCGGAGTCACCTAGTGCAG | 5070 fluorescence intensity (a.u.)
ATGGTATTGTGAGTAATAAGCTCCTGACATGTGTGGTTTCCGGAGTCACCTAGTGCAG | 5210 fluorescence intensity (a.u.)
TCCTCACATGATGTACAGTCACACACACTCCTCCTCTCTCCGGAGTCACCTAGTGCAG | 8550 fluorescence intensity (a.u.)
TGCTATGCTTATTACAATGCTATGCTGACAGACCATTTTGCGGAGTCACCTAGTGCAG | 4540 fluorescence intensity (a.u.)
GTTCTGTCTTAACCTGCTTTCATATTAATTGTTAAAGTTGCGGAGTCACCTAGTGCAG | 3280 fluorescence intensity (a.u.)
TCGTGCCAGGGCCCGTGCCACGCCAAGCCGCACTTCTAACCGGAGTCACCTAGTGCAG | 4540 fluorescence intensity (a.u.)
CTGCGTTCCAGTGCCAGTCCATCTCCAGTGGTCAGCGGCGCGGAGTCACCTAGTGCAG | 3650 fluorescence intensity (a.u.)
AATAGGCGATCAGGAACCGTGGATGCGTAGAGCTCGCCGACGGAGTCACCTAGTGCAG | 33900 fluorescence intensity (a.u.)
CTACCCTGGACGAAGCCGGGCGGCGGTGTCACCTCTCGCCCGGAGTCACCTAGTGCAG | 3860 fluorescence intensity (a.u.)
CTTTTGCCAAGCTGGATAGTGGACATCACACAACCAACCGCGGAGTCACCTAGTGCAG | 4460 fluorescence intensity (a.u.)
ACACACCCCTAGAATGGCGATGAGGACGAAGCTGATGTGGCGGAGTCACCTAGTGCAG | 9610 fluorescence intensity (a.u.)
AAGTGAATCACGCCCACGCGTGATCGTCTTGTCACATCTACGGAGTCACCTAGTGCAG | 3900 fluorescence intensity (a.u.)
GAAGCTTCGAGACAAGATGACTCGGATTCAGCACTGACATCGGAGTCACCTAGTGCAG | 4200 fluorescence intensity (a.u.)
CCTACTTGGGAAGTTGGGTGGGATTGGCGTCGTGTTCGTGCGGAGTCACCTAGTGCAG | 3950 fluorescence intensity (a.u.)
CACGGGAGCGAGCAGAGCGGTGGGTAGCAGCCCACCTCCACGGAGTCACCTAGTGCAG | 3300 fluorescence intensity (a.u.)
AGTTTTACAAGTTGAGGAGCACGTTATAACTGATATTGTCCGGAGTCACCTAGTGCAG | 5510 fluorescence intensity (a.u.)

Source: paper PMC7819943, “Rice protein-binding microarrays: a tool to detect cis-acting elements near promoter regions in rice”
